Data as given in PubChem BioAssay AID1508597 (Cure First, 2020)
Screen: 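Genes whose silencing sensitises or protects ovarian cancer cells against rucaparib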 (primary screen). Cell system: human ovarian carcinoma lines grown from tumours: OCI-P5x (papillary serous) and OCI-C5x (clear cell). Knock-down reagent: siRNA pool against human genes, 1.25 pmol siRNA per well. Duration: 72 h or 96 h, depending on the cell culture. Treatment: rucaparib 20 µM (about IC30) or vehicle, present until read-out. Rucaparib or vehicle: Rucaparib. Cell line: OCI-P5x (serous). Read-out: 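ATP luminescence measured at 72 or 96 h according to the culture, then normalised and expressed as percent viability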. Scale: viability, normalised: higher = more viable cells remaining. Call rule: 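Active when normalised viability falls below 80 percent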. Meaning of the calls: active = viability under 80%; inactive = viability 80% or more.
This is an unselected part of the about 2,100 reagents, under one of the conditions tested. 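Calls flag viability under 80% in either arm, not effects specific to rucaparib; the reference for percent is not stated.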 No sequences are given here. The record does not give: the 100% reference.

Target gene | technical replicate | viability, normalised (%) | activity call
CTBP1-DT (GeneID 92070) | 1 | 85.7 | inactive
CTBP1-DT (GeneID 92070) | 2 | 97.6 | inactive
CTBP1-DT (GeneID 92070) | 3 | 103 | inactive
DHX32 (GeneID 55760) | 1 | 84.7 | inactive
DHX32 (GeneID 55760) | 2 | 82 | inactive
DHX32 (GeneID 55760) | 3 | 64.9 | active
ZDHHC17 (GeneID 23390) | 1 | 39.4 | active
ZDHHC17 (GeneID 23390) | 2 | 43.1 | active
ZDHHC17 (GeneID 23390) | 3 | 45.1 | active
KCTD13 (GeneID 253980) | 1 | 98.9 | inactive
KCTD13 (GeneID 253980) | 2 | 100 | inactive
KCTD13 (GeneID 253980) | 3 | 94.5 | inactive
KAT2A (GeneID 2648) | 1 | 49.4 | active
KAT2A (GeneID 2648) | 2 | 61.9 | active
KAT2A (GeneID 2648) | 3 | 58.8 | active
G6PC1 (GeneID 2538) | 1 | 71 | active
G6PC1 (GeneID 2538) | 2 | 57.5 | active
G6PC1 (GeneID 2538) | 3 | 61.4 | active
SIN3B (GeneID 23309) | 1 | 54.2 | active
SIN3B (GeneID 23309) | 2 | 58.5 | active
SIN3B (GeneID 23309) | 3 | 53.4 | active
PCDHB9 (GeneID 56127) | 1 | 60.3 | active
PCDHB9 (GeneID 56127) | 2 | 60.3 | active
PCDHB9 (GeneID 56127) | 3 | 61.5 | active

Not a retest: 3 of the entries above.
Target gene | technical replicate | viability, normalised (%) | activity call
DHX32 (GeneID 55760) | 1 | 84.7 | inactive
DHX32 (GeneID 55760) | 2 | 82 | inactive
DHX32 (GeneID 55760) | 3 | 64.9 | active
